{"source": "patent US11958915B2", "about": "“Methods for treatment and diagnosis of non-alcoholic steatohepatitis and/or hepatocellular carcinoma” (Marshall University Research Corporation, priority 2020, dated 2024)", "system": "two human HCC cell lines (HEP3B and SNU475)", "experiment": "MTT cell proliferation assay, two human HCC cell lines", "format": "cell-based", "conditions": "PI3K/Akt pathway inhibitors on two human HCC cell lines", "note": "At least one compound was matched to its structure with a doubt left.", "data": [{"smiles": "COC[C@H]1OC(=O)c2coc3c2[C@@]1(C)C1=C(C3=O)[C@@H]2CCC(=O)[C@@]2(C)C[C@H]1OC(C)=O", "note": "[wortmannin]", "values": [{"measurement": "cell proliferation (MTT assay)", "result": "inhibited cell proliferation"}]}]}
